These results are taken from patent US20090008238A1, “TRANSPORTABLE GAS STERILIZATION UNIT, DISPOSABLE GAS GENERATOR, LIGHT ACTIVATED ANTI-INFECTIVE COATING AND METHOD OF DISINFECTION AND STERILIZATION USING CHLORINE DIOXIDE” (THE ARIZONA BD OF REG ON BEHALF OF THE UNIV OF AZ, priority 2004, published 2009).

A short description of the data set: chlorine dioxide production using photoacid generating (PAG) chemistry and NaClO2. The conditions noted are these: about 5 mg PAG ground with about 10 mg NaClO2, Milli-Q H2O, ethanol, sunlight.

Consider Bis(styryl)benzene, for which the “Max. ClO2” value amounted to 16 ppm. Take Triphenylamine dimethylsulfate: the “Max. ClO2” value is greater than 250 ppm. On to “diphenyliodonium 9,10-dimethoxyanthracenesulfonate”, for which the “Max. ClO2” value is recorded as 5.1 ppm.
